# Test results reported in PubChem BioAssay AID493014 (National Center for Advancing Translational Sciences (NCATS), 2011).
# Values joined by “and” are separate entries in the source; they are usually repeats but may differ in a detail not shown here. Identical values can stand only once. About 170 (0.05%) of roughly 340,000 compounds were called active. The shares of active, inactive and inconclusive entries below differ from those in the screen. The call rests on the fitted dose curve; in most records, active means well fitted inhibition curve with a large enough effect in the signal ratio, with a control signal flat (not every such curve was filed as active); inconclusive means small, poorly fitted or top-dose-only effect, or effect the other way, or a change in a side signal; inactive means flat fitted curve, though single readings scatter; the % refers to the signal ratio. Potencies of inconclusive entries are doubtful fits and often do not repeat.
# Test: qHTS Assay to Find Inhibitors of Chronic Active B-Cell Receptor Signaling;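 on activity change, negative = inhibition: plate controls were basal doxycycline-induced cells for no effect and cells given 10 µM MG132 for full effect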
# Conditions: ABC-DLBCL IkBa-CBG/CBR reporter, luminescence ratio (green luciferase fused to IkBa over red control in TMD8 lymphoma cells), 4 h; activity change, negative = inhibition: at 46.1 µM (top of the series)
# Summary of the method: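 TMD8 human ABC-DLBCL cells with doxycycline-inducible IκBα–green luciferase fusion and unfused red luciferase, in 0.5% FBS medium; compounds up to 46 uM, 4 h at 37C. Green/red luminescence ratio, filter-overlap corrected, fitted to concentration-response curves.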
# Potency means the concentration at half of the fitted maximal effect.
SMILES,"activity change, negative = inhibition",Potency
Nc1cc(C(=O)O)ccc1Nc1ccc(F)c(F)c1,inconclusive: -0.318%,
COc1ccc(-c2csc(N3CCC(C(N)=O)CC3)n2)cc1,inconclusive: 0.224%,
O=c1[nH]c(/C(Cl)=C/c2c(F)cccc2Cl)nc2cc(Cl)ccc12,inactive: 3.4%,
CN(c1ccc(OC(=O)CN2C(=O)NC3(CCCC3)C2=O)cc1)S(=O)(=O)c1ccccc1,inconclusive: 15.7%,
COc1ccc(NC(=O)CSc2nnc(NC(=O)NC3CCCCC3)s2)cc1OC,,"inconclusive: 11.2 µM [rising, partial curve, poor fit]"
CCOC(=O)/C(C#N)=C/c1c(N2CCN(c3ccccc3)CC2)nc2ccccn2c1=O,inconclusive: 8.27%,
COc1ccc(Cl)cc1C(=O)OCC(=O)N(C)CC(=O)Nc1ccc(F)cc1,,"inconclusive: 29.1 µM [falling, single point]"
CCCCCCCCCCC[N+](C)(C)CC/C=C1/c2ccccc2Sc2ccc(Cl)cc21,inconclusive: -10.1%,
Cc1ccc(S(=O)(=O)N(Cc2ccccc2)C(C)C)cc1,inactive: 8.73%,
Cn1cccc1/C=N/NC(=O)CSc1nc2ccccc2n1C,inconclusive: 15.6%,
CCOC(=O)c1cnc2c(ccc3ccccc32)c1NCCCN(C)C,inconclusive: -16.7%,
O=C(NCCCN1CCOCC1)C(=O)N/N=C/c1ccccc1O,inactive: 2.38%,
c1ccc2c(c1)nc(N1CCOCC1)c1nncn12,inactive: 1.31%,
COc1ccc(C2c3ccc(O)cc3Oc3ncn4nc(-c5ccco5)nc4c32)cc1OC (configuration not stated),inconclusive: -4.26%,
CCOC(=O)C(Sc1ncnc2c1sc1nc(N3CCOCC3)c3c(c12)CCCC3)c1ccccc1 (configuration not stated),inconclusive: 16.8%,
CCOC(=O)N1CCN(c2c(NCCCN3CCCCCC3)c(=O)c2=O)CC1,inconclusive: 2.3%,
COc1cccc(Cn2c(NCc3cccnc3)nc3c2c(=O)n(C)c(=O)n3C)c1,,"inconclusive: 0.112 µM [falling, full curve, poor fit]"
O=C(c1cn(-c2ccccc2)nc1-c1ccc(F)cc1)N1CCOCC1,inactive: -5.93%,
O=C1C(=O)N(CCN2CCOCC2)C(c2ccc([N+](=O)[O-])cc2)/C1=C(/O)c1ccc2c(c1)OCO2 (configuration not stated),inconclusive: 8.59%,
COC(=O)c1cc(NC(=O)CSc2nncn2C)cc(C(=O)OC)c1,inconclusive: 3.16%,
Cc1cc(Cl)cc2c1NC(=O)[C@]21[C@@H]2C(=O)N(Cc3ccccc3)C(=O)[C@@H]2[C@@H]2CCCN21,inconclusive: -15.5% and inconclusive: 3.05%,
Cc1cc(C)c(S(=O)(=O)N2CCN(c3ccc([N+](=O)[O-])c(-n4nc(C)cc4C)c3)CC2)c(C)c1,inconclusive: 16.7%,
